Test: PAMPA (parellel artificial membrane permeability assay)
Format: in vitro ADME
Design: unit not given here

- PAMPA: −3.8
Compound: O=C(NCc1ccncc1)c1ccc(-c2ccccc2)cc1

Reference: patent publication US20170081347A1, “FUNCTIONALIZED AZABORINE COMPOUNDS AND AZABORINE-CONTAINING BIARYLCARBOXAMIDES, AND COMPOSITIONS AND METHODS THEREOF” (The Trustees of Boston College, priority 2014, published 2017)
